From ChEMBL document CHEMBL4715839, “Structure-activity relationships for binding of 4-substituted triazole-phenols to macrophage migration inhibitory factor (MIF)” (Eur J Med Chem, 2020) come the findings set out here.

Substrate in series [1]: O=C(NCc1cn(-c2ccc(O)c(F)c2)nn1)c1cc2ccccc2[nH]1
Particulars: Homo sapiens; dose 2.5 µM.

Substrate in series [2]: O=C(NCc1cn(-c2ccc(O)c(F)c2)nn1)c1cc2ccccc2[nH]1
Particulars: Homo sapiens; dose 1.0 µM.

B1: Macrophage migration inhibitory factor (Homo sapiens), P14174 (protein)
chain: MPMFIVNTNVPRASVPDGFLSELTQQLAQATGKPPQYIAVHVVPDQLMAFGGSSEPCALCSLHSIGKIGGAQNRSYSKLLCGLLAERLRISPDRVYINYYDMNAANVGWNNSTFA
For B1, the Km in series [1] was 1950 µM; in series [2] it was 1600 µM.

One may read the Km as the concentration of substrate that gives half-maximal velocity.
